Measurements reported in PubChem BioAssay AID1259254 (NCATS, 2017).
Aim: 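Genome-wide screen for genes that prevent DNA re-replication in cancer cells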 (primary screen). Cell system: human HCT116 colorectal cancer cells. Reagent: single siRNA against human genes. Timing: 3 days. Read-out: 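Nuclei stained with Hoechst and imaged; cell-cycle phase assigned by DNA content; G2 share scaled per plate, non-targeting siRNA 0%, GMNN siRNA 100%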. Reading the numbers: G2 robust z-score: higher = more G2 cells, more excess DNA replication. Rule for the call: 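Active siRNAs have a G2 robust z of 5 or more median absolute deviations over the median, which in these data means about 38% or higher of GMNN control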.
Here is an unselected part of about 59,000 deposited reagents. Over the whole deposit, about 1,550 (2.6%) got an active call. 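G2 share is only a proxy for re-replication; each gene was hit by three separate siRNAs, and active genes were retested.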 Unmarked entries are inactive. Reagents against one gene are numbered here. Not all columns of the deposit are shown. Not given: the amount of reagent.

| Target gene | reagent no. | G2 robust z-score |
| --- | --- | --- |
| CXCR3 | 1 | -0.329 |
| CXCR3 | 2 | 1.71 |
| CXCR3 | 3 | 1.79 |
| USHBP1 | 1 | -0.93 |
| USHBP1 | 2 | -0.289 |
| USHBP1 | 3 | -0.736 |
| GPR88 | 1 | -0.184 |
| GPR88 | 2 | -1.29 |
| GPR88 | 3 | 1.55 |
| MAP3K3 | 1 | -1.05 |
| MAP3K3 | 2 | -1.4 |
| MAP3K3 | 3 | 0.658 |
| SLC35A1 | 1 | -0.484 |
| SLC35A1 | 2 | 5.15 (active) |
| SLC35A1 | 3 | 1.78 |
| MAGT1 | 1 | -0.517 |
| MAGT1 | 2 | 0.762 |
| MAGT1 | 3 | 0.858 |
| FAM171A1 | 1 | -0.171 |
| FAM171A1 | 2 | -0.0441 |
| FAM171A1 | 3 | -0.473 |
| MAMSTR | 1 | 1.99 |
| MAMSTR | 2 | -0.476 |
| MAMSTR | 3 | 1.73 |
| NECTIN1 | 1 | 2.45 |
| NECTIN1 | 2 | 0.00425 |
| NECTIN1 | 3 | 0.489 |
| PRR11 | 1 | 0.628 |
| PRR11 | 2 | -0.651 |
| PRR11 | 3 | -0.193 |
| KLHL21 | 1 | -1.09 |
| KLHL21 | 2 | 0.668 |
| KLHL21 | 3 | 0.364 |
| NRAS | 1 | -1.27 |
| NRAS | 2 | -0.519 |
| NRAS | 3 | -0.359 |
| ZSWIM1 | 1 | 2.59 |
| ZSWIM1 | 2 | 0.0462 |
| ZSWIM1 | 3 | 1.82 |
| ZHX1 | 1 | 5.1 (active) |
| ZHX1 | 2 | -1.05 |
| ZHX1 | 3 | -0.944 |
| KIFAP3 | 1 | 0.0384 |
| KIFAP3 | 2 | 2.24 |
| KIFAP3 | 3 | 1.88 |
| NDRG2 | 1 | 0.425 |
| NDRG2 | 2 | 0.96 |
| NDRG2 | 3 | -1.3 |
| KLHL13 | 1 | 1.2 |
| KLHL13 | 2 | 0.928 |
| KLHL13 | 3 | 2.05 |
| BCL2L15 | 1 | 1.19 |
| BCL2L15 | 2 | -0.443 |
| BCL2L15 | 3 | -0.897 |
| POLE4 | 1 | -0.41 |
| POLE4 | 2 | 0.92 |
| POLE4 | 3 | -1.46 |
| TTC12 | 1 | -0.432 |
| TTC12 | 2 | -0.541 |
| TTC12 | 3 | -0.606 |
| PCBP4 | 1 | -0.631 |
| PCBP4 | 2 | 0.342 |
| PCBP4 | 3 | 0.33 |
| RAB3IL1 | 1 | 0.913 |
| RAB3IL1 | 2 | -0.563 |
| RAB3IL1 | 3 | -1.19 |
| LAMB4 | 1 | 1.31 |
| LAMB4 | 2 | 0.501 |
| LAMB4 | 3 | -0.0089 |
